Data as given in the supplement of paper PMC10849652.
Some of the results follow.

The chains behind the UniProt entries cited, without tags or fusion partners. Where a name states a change or a piece, a line headed by the entry shows the natural chain unless it says otherwise.
UniProt Q13510, whole entry, looked up: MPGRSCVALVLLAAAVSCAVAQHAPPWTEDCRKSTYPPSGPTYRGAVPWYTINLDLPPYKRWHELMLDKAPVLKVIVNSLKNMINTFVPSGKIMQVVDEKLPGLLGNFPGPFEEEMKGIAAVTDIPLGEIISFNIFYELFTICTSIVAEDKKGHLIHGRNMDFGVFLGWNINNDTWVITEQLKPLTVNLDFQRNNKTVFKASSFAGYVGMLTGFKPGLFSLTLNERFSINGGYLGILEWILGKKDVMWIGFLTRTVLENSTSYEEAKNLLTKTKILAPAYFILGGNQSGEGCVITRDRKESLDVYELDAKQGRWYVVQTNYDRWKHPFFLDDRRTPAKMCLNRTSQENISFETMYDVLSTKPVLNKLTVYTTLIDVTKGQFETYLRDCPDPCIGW
UniProt Q9UH62: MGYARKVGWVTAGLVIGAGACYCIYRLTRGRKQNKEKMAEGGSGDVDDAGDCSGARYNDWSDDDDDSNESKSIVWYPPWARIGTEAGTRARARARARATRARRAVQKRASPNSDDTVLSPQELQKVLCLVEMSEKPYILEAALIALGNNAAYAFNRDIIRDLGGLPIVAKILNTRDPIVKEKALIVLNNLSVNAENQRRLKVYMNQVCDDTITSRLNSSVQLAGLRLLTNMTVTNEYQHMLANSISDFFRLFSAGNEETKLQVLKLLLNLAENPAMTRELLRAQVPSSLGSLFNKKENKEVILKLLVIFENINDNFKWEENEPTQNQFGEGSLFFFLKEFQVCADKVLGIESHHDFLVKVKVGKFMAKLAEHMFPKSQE
UniProt Q8N2F6: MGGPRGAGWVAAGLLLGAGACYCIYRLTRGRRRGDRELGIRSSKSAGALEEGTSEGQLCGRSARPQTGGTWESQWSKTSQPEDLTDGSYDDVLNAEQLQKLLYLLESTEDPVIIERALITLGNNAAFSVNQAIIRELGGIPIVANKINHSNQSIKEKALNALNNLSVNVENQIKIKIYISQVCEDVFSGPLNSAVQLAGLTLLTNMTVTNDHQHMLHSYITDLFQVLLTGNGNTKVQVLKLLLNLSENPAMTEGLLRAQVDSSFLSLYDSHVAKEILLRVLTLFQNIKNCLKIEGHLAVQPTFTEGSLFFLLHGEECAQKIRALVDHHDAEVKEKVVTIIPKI
UniProt Q4LE39: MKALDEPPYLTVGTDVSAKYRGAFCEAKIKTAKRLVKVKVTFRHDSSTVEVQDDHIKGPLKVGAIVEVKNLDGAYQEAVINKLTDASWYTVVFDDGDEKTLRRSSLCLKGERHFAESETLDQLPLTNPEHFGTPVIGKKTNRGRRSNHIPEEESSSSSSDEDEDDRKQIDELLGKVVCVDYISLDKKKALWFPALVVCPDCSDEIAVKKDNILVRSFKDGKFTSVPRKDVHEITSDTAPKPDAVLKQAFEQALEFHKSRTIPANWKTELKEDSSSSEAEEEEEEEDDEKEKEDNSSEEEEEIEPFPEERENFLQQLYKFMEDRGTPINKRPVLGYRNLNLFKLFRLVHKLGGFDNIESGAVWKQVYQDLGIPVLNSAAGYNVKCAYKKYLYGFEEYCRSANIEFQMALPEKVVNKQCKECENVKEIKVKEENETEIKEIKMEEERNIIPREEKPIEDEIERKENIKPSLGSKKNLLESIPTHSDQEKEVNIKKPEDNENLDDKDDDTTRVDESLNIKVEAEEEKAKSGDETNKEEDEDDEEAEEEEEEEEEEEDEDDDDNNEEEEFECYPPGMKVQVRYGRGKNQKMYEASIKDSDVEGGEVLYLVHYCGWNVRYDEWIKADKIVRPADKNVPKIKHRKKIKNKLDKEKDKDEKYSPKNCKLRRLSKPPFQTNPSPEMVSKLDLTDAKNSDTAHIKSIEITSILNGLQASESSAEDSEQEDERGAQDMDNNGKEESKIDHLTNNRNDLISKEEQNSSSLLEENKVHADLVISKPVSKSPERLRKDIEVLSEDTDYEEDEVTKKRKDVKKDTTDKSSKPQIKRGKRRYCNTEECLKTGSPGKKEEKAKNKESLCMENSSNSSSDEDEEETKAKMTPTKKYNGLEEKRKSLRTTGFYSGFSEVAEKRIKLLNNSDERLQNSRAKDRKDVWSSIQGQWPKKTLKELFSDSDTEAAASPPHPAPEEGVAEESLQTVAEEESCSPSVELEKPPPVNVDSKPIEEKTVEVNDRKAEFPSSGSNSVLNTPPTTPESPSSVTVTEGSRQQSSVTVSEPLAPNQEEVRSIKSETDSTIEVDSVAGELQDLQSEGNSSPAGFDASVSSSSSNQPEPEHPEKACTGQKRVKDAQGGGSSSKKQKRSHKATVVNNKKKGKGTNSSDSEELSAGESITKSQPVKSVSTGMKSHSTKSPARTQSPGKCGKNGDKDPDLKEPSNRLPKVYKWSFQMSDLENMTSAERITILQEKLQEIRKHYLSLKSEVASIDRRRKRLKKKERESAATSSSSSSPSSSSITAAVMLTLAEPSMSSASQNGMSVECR
UniProt Q9NVT9: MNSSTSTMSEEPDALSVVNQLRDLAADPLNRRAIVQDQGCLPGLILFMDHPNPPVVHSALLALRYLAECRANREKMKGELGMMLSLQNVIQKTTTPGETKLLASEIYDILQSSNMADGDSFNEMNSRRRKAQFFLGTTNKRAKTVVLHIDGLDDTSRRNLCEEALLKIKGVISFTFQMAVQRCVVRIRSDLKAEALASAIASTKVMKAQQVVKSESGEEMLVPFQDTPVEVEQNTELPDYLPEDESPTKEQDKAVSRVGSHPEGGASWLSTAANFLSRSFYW
UniProt P52566: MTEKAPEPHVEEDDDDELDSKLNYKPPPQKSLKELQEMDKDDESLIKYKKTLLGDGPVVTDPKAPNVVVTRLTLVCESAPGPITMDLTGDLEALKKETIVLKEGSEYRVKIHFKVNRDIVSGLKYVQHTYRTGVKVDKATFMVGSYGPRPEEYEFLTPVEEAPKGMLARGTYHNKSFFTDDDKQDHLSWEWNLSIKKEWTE
UniProt Q9NZN5: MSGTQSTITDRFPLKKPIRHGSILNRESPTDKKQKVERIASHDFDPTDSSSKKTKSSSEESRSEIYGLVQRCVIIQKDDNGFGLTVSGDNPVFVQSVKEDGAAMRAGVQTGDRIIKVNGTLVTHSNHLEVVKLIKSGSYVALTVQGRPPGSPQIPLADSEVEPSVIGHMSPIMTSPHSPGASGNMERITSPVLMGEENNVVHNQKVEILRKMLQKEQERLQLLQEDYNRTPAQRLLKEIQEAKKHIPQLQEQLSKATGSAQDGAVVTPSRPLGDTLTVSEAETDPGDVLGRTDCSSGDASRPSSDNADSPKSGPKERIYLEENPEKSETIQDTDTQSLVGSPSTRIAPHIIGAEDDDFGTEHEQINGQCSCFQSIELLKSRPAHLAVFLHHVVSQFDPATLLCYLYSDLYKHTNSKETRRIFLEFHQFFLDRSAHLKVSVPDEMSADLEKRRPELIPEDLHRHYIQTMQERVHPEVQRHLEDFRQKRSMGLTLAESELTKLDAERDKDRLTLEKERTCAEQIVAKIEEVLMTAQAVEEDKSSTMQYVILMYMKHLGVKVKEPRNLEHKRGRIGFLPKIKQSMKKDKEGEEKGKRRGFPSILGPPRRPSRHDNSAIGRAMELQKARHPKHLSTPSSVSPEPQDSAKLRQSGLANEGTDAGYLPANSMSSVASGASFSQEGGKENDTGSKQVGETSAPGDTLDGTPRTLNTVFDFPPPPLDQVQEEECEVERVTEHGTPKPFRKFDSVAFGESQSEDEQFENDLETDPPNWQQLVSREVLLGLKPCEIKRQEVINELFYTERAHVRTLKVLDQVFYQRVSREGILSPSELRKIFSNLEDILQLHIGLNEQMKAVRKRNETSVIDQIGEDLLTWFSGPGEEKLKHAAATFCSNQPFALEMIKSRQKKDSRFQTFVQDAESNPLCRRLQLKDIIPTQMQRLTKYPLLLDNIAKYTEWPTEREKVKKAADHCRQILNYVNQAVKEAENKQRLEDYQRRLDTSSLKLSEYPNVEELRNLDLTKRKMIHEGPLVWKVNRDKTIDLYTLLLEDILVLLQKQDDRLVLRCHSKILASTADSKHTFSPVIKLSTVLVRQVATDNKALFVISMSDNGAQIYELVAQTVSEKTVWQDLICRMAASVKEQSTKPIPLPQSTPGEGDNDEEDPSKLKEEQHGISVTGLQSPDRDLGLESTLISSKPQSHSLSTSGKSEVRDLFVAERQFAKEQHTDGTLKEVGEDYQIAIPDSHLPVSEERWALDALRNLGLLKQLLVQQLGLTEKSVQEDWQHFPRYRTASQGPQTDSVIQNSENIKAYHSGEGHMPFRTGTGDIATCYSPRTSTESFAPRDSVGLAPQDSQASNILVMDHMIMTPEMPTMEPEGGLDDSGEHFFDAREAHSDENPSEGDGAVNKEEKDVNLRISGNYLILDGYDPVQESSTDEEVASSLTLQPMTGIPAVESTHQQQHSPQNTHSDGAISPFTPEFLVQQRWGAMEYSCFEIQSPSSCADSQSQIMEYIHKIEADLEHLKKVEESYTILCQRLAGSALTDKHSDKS
UniProt Q6UXV4: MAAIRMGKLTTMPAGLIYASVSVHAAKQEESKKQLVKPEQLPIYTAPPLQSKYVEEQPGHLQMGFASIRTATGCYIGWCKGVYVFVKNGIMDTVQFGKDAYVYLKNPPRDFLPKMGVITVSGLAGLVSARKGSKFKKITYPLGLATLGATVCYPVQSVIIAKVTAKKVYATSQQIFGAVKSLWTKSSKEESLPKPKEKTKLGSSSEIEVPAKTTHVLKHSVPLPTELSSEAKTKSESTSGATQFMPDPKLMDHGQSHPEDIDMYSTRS
UniProt P42331: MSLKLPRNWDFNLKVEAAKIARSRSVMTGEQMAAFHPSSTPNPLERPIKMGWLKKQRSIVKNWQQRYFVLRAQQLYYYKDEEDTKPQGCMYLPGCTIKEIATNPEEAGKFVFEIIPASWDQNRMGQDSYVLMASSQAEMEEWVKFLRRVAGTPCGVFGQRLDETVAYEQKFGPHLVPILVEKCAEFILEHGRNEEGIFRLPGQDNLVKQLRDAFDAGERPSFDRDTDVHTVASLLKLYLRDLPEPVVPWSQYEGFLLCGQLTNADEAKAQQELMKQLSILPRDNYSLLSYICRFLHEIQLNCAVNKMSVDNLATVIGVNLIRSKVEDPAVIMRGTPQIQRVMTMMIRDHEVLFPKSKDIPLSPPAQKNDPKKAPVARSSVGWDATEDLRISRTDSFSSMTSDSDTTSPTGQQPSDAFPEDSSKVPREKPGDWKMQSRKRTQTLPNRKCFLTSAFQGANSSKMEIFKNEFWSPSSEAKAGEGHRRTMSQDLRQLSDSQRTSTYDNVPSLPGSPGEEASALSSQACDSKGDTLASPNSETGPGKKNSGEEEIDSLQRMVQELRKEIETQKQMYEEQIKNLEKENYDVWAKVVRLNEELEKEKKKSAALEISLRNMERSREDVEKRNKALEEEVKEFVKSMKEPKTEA
UniProt P15848: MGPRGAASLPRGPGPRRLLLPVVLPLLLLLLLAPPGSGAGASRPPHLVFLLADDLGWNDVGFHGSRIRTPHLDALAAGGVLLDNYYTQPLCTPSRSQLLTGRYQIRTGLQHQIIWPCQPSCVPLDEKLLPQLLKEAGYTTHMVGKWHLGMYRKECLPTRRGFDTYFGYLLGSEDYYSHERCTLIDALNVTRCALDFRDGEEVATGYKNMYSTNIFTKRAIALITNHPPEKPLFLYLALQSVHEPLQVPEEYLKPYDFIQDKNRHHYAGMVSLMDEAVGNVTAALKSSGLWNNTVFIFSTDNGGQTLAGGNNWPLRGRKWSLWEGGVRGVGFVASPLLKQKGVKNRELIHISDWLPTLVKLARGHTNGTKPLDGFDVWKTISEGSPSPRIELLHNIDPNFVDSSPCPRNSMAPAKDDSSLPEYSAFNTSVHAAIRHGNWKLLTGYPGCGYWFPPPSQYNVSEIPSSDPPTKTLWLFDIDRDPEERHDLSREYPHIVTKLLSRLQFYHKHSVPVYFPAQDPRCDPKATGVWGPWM
UniProt P02647, whole entry, looked up: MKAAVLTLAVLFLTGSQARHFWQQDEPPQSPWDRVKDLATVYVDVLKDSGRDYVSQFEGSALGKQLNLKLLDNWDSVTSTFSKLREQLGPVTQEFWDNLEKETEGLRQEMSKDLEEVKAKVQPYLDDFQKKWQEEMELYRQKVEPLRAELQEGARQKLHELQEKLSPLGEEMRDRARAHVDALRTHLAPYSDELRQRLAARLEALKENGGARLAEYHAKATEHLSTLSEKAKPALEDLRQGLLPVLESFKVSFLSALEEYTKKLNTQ
UniProt P78540: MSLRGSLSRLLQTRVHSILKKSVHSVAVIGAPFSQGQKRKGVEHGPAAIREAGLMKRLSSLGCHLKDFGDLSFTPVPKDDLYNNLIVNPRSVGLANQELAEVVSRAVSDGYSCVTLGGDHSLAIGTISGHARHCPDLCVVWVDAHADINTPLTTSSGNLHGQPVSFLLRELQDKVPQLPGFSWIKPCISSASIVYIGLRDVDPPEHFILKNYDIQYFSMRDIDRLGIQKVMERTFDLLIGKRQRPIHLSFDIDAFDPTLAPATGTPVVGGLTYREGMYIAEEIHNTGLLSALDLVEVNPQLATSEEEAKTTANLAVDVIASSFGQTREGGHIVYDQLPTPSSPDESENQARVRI

Columns and labels:
Experiment in all cases: log2 fold change, soluble protein after heating vs DMSO (PISA); higher = thermal stabilisation; K562 lysate, 10 uM; active = over 0.2 and 3.5 SD of the protein, either way, in both replicates (recomputed)
erlotinib = compound: C#Cc1cccc(Nc2ncnc3cc(OCCOC)c(OCCOC)cc23)c1 [erlotinib]
How it was run: (§1)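 Soluble protein was defined as the supernatant remaining after 21,000xg for 90 min, following pooling of heated aliquots and adjustment to 0.5% NP-40 at 4°C. Before that, crude K562 extract at 1 mg/mL protein in PBS pH 7.4 with 1 mM MgCl2 was treated with 10 μM compound for 30 min and heated for 3 min across 48°C-58°C. Quantification used TMTpro 16plex LC-MS/MS with channel sums equalised, and values are log-two fold changes in thermal stability relative to solvent controls from duplicates.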

[1] = compound: C/C(=N\NC(=O)C1=CC(=CC=C1)S(=O)(=O)N2CCOCC2)/C3=C(C=CC(=C3)Cl)O
How it was run: as §1

[2] = compound: C1=CC(=CC=C1C2=NC3=C(N2)C=C(C=C3)C(=O)N)OC4=CC=C(C=C4)Cl
How it was run: as §1

[3] = compound: C1=CC2=C(C=CC(=C2)/C=C\3/C(=O)NC(=NCC4=CC=CS4)S3)N=C1
How it was run: as §1

[4] = compound: C1=CC2=NC=CN=C2C=C1/C=C/3\C(=O)NC(=O)S3
How it was run: as §1

[5] = compound: C1=CC=C(C=C1)C2=NC(=C(N2)C3=CC=NC=C3)C4=CC(=C(C=C4)Cl)O
How it was run: as §1

[6] = compound: C1=CC=C2C(=C1)C3=NNC4=CC=CC(=C43)C2=O
How it was run: as §1

[7] = compound: C1CCN(C1)C(=O)NC2=CC=CC(=C2)NC3=NC=C(C(=N3)NCCC4=CN=CN4)Br
How it was run: as §1

[8] = compound: C1CN(CCC1(CC2=CC=C(C=C2)Cl)N)C3=NC=NC4=C3C=CN4
How it was run: as §1

IRAK-1-4 Inhibitor I = compound: C1COCCN1CCN2C3=CC=CC=C3N=C2NC(=O)C4=CC(=CC=C4)[N+](=O)[O-] [IRAK-1-4 Inhibitor I]
How it was run: as §1

ibrutinib = compound: C=CC(=O)N1CCC[C@@H](n2nc(-c3ccc(Oc4ccccc4)cc3)c3c(N)ncnc32)C1 [ibrutinib]
How it was run: as §1

[9] = compound: CC(=O)c1cnc2ccc(-c3cc(Cl)c(O)c(Cl)c3)nc2c1N[C@H]1CC[C@H](CN(C)C)CC1
How it was run: as §1

ralimetinib = compound: CC(C)(C)Cn1c(N)nc2ccc(-c3[nH]c(C(C)(C)C)nc3-c3ccc(F)cc3)nc21 [ralimetinib]
How it was run: as §1

[10] = compound: CC(C)(O)CC(=O)NCCn1ccc2ncnc(Nc3ccc(Oc4cccc(C(F)(F)F)c4)c(Cl)c3)c21
How it was run: as §1

[11] = compound: CC(C)C1=C2N=C(C=C(N2N=C1)NCC3=CC=CC=C3)NCCCCCCN
How it was run: as §1

[12] = compound: CC1=C(C(CC(=O)N1)C2=CC=C(C=C2)C(F)(F)F)C(=O)NC3=C(C=C4C(=C3)C=NN4)F
How it was run: as §1

[13] = compound: CC1=C(C2=C(C=C1)C(=O)C3=CC=CC=C3N2CCCN)C
How it was run: as §1

[14] = compound: CC1=C(C=C(C=C1)NC(=O)C2=CC(=CC=C2)C(C)(C)C#N)NC3=CC4=C(C=C3)N=CN(C4=O)C
How it was run: as §1

[15] = compound: CC1=C(C=C(C=C1)NC(=O)C2=CC(=CC=C2)N(C)C)NC(=O)C3=CC=C(C=C3)O
How it was run: as §1

[16] = compound: CC1=CC=C(C=C1)SC2=C3C=C(SC3=CN=C2)C(=O)N
How it was run: as §1

Measured: log2 fold change

ARPIN isoform 2 (UniProt Q7Z6K5)
inactive: erlotinib 0.191 | [1] 0.235 | [2] -0.036 | [3] -0.172 | [4] -0.127 | [5] -0.005 | [6] -0.068 | [7] -0.149 | [8] 0.125 | IRAK-1-4 Inhibitor I 0.043 | ibrutinib 0.014 | [9] 0.028 | ralimetinib -0.06 | [10] -0.022 | [11] 0.05 | [12] 0.06 | [13] -0.106 | [14] 0.048 | [15] -0.045 | [16] 0.013

ASAH1 isoform 2 (UniProt Q13510)
inactive: erlotinib 0.02 | [1] -0.062 | [2] 0.036 | [3] -0.03 | [4] -0.041 | [5] -0.027 | [6] 0.027 | [7] 0.034 | [8] 0.011 | IRAK-1-4 Inhibitor I 0.016 | ibrutinib -0.058 | [9] -0.042 | ralimetinib 0.038 | [10] -0.011 | [11] 0.039 | [12] 0.104 | [13] 0.017 | [14] 0.016 | [15] -0.045 | [16] 0.037

ARMCX3 (UniProt Q9UH62)
inactive: erlotinib 0.023 | [1] -0.02 | [2] -0.005 | [3] 0.009 | [4] 0.033 | [5] -0.005 | [6] -0.043 | [7] -0.016 | [8] 0.064 | IRAK-1-4 Inhibitor I 0.03 | ibrutinib -0.073 | [9] -0.027 | ralimetinib 0.006 | [10] 0.013 | [11] -0.042 | [12] -0.053 | [13] -0.029 | [14] 0.004 | [15] 0.039 | [16] 0

APEX1 (UniProt P27695)
inactive: erlotinib 0.026 | [1] 0.011 | [2] -0.011 | [3] 0.016 | [4] 0 | [5] 0.004 | [6] -0.072 | [7] 0 | [8] 0.003 | IRAK-1-4 Inhibitor I -0.007 | ibrutinib 0.048 | [9] -0.001 | ralimetinib -0.014 | [10] 0.026 | [11] 0.006 | [12] 0.001 | [13] -0.02 | [14] -0.011 | [15] 0.01 | [16] 0.019

ARMC10 (UniProt Q8N2F6)
inactive: erlotinib -0.002 | [1] 0.017 | [2] 0.009 | [3] 0.068 | [4] -0.03 | [5] -0.006 | [6] 0.007 | [7] -0.018 | [8] 0.006 | IRAK-1-4 Inhibitor I 0.03 | ibrutinib -0.076 | [9] -0.048 | ralimetinib -0.027 | [10] 0.014 | [11] 0.025 | [12] -0.092 | [13] 0.013 | [14] 0.018 | [15] 0 | [16] -0.007

ARID4B (UniProt Q4LE39)
inactive: erlotinib 0.015 | [1] -0.058 | [2] 0.093 | [3] 0.045 | [4] -0.033 | [5] 0.014 | [6] -0.014 | [7] -0.061 | [8] 0.01 | IRAK-1-4 Inhibitor I -0.002 | ibrutinib -0.063 | [9] 0.02 | ralimetinib 0.01 | [10] -0.021 | [11] 0.03 | [12] -0.051 | [13] 0.022 | [14] 0.023 | [15] 0.001 | [16] -0.013

APOL2 (UniProt J3KQL8)
inactive: erlotinib 0.042 | [1] -0.235 | [2] -0.045 | [3] -0.064 | [4] 0.012 | [5] 0.043 | [6] 0.189 | [7] 0.028 | [8] 0.057 | IRAK-1-4 Inhibitor I 0.025 | ibrutinib 0.01 | [9] -0.004 | ralimetinib 0.117 | [10] 0.027 | [11] -0.055 | [12] 0.1 | [13] -0.002 | [14] -0.043 | [15] -0.005 | [16] -0.047

ARMC1 (UniProt Q9NVT9)
inactive: erlotinib -0.014 | [1] -0.003 | [2] -0.011 | [3] -0.037 | [4] 0.004 | [5] 0.011 | [6] -0.049 | [7] -0.06 | [8] 0 | IRAK-1-4 Inhibitor I -0.003 | ibrutinib 0.016 | [9] -0.032 | ralimetinib 0.001 | [10] 0.006 | [11] -0.008 | [12] -0.042 | [13] -0.04 | [14] 0.016 | [15] -0.012 | [16] 0

ARHGDIB (UniProt P52566)
inactive: erlotinib -0.032 | [1] 0.014 | [2] 0.007 | [3] -0.007 | [4] -0.022 | [5] 0.011 | [6] -0.014 | [7] 0.03 | [8] -0.018 | IRAK-1-4 Inhibitor I 0.013 | ibrutinib -0.023 | [9] -0.025 | ralimetinib -0.023 | [10] -0.031 | [11] -0.013 | [12] -0.048 | [13] 0.025 | [14] 0.011 | [15] 0 | [16] -0.017

ARHGEF12 (UniProt Q9NZN5)
inactive: erlotinib -0.01 | [1] 0.022 | [2] 0.011 | [3] -0.019 | [4] -0.007 | [5] -0.006 | [6] 0.003 | [7] -0.018 | [8] -0.029 | IRAK-1-4 Inhibitor I 0.004 | ibrutinib -0.033 | [9] -0.005 | ralimetinib 0.032 | [10] -0.043 | [11] 0.01 | [12] 0.003 | [13] -0.029 | [14] -0.04 | [15] 0.025 | [16] -0.015

APOOL (UniProt Q6UXV4)
inactive: erlotinib -0.021 | [1] 0.014 | [2] 0.017 | [3] -0.006 | [4] -0.022 | [5] -0.023 | [6] -0.028 | [7] -0.025 | [8] 0.007 | IRAK-1-4 Inhibitor I 0.016 | ibrutinib -0.01 | [9] -0.011 | ralimetinib -0.013 | [10] -0.027 | [11] -0.017 | [12] 0.039 | [13] -0.032 | [14] -0.004 | [15] 0.027 | [16] 0.012

Looked up one by one from the entries so far (two):
ARHGDIB (UniProt P52566)
inactive: erlotinib -0.032 | [1] 0.014 | [2] 0.007 | [3] -0.007 | [4] -0.022 | [5] 0.011 | [6] -0.014 | [7] 0.03 | [8] -0.018 | IRAK-1-4 Inhibitor I 0.013 | ibrutinib -0.023 | [9] -0.025 | ralimetinib -0.023 | [10] -0.031 | [11] -0.013 | [12] -0.048 | [13] 0.025 | [14] 0.011 | [15] 0 | [16] -0.017

ARMC1 (UniProt Q9NVT9)
inactive: erlotinib -0.014 | [1] -0.003 | [2] -0.011 | [3] -0.037 | [4] 0.004 | [5] 0.011 | [6] -0.049 | [7] -0.06 | [8] 0 | IRAK-1-4 Inhibitor I -0.003 | ibrutinib 0.016 | [9] -0.032 | ralimetinib 0.001 | [10] 0.006 | [11] -0.008 | [12] -0.042 | [13] -0.04 | [14] 0.016 | [15] -0.012 | [16] 0

Continued:

ARPC2 (UniProt O15144)
inactive: erlotinib -0.005 | [1] -0.028 | [2] 0.015 | [3] 0 | [4] 0.005 | [5] -0.004 | [6] 0.015 | [7] 0.006 | [8] -0.006 | IRAK-1-4 Inhibitor I 0.001 | ibrutinib -0.021 | [9] -0.009 | ralimetinib 0.032 | [10] -0.003 | [11] -0.001 | [12] -0.009 | [13] 0.019 | [14] -0.006 | [15] -0.008 | [16] -0.015

ARHGAP25 isoform 4 (UniProt P42331)
inactive: erlotinib 0.029 | [1] 0.045 | [2] 0.026 | [3] -0.031 | [4] -0.031 | [5] -0.002 | [6] -0.029 | [7] 0.007 | [8] 0.034 | IRAK-1-4 Inhibitor I -0.006 | ibrutinib 0.016 | [9] 0.036 | ralimetinib 0.026 | [10] -0.003 | [11] -0.026 | [12] 0.064 | [13] -0.014 | [14] 0.117 | [15] 0.059 | [16] -0.006

ARSB (UniProt P15848)
inactive: erlotinib 0.038 | [1] 0.008 | [2] 0.054 | [3] 0.025 | [4] 0.026 | [5] 0.013 | [6] 0.023 | [7] 0.034 | [8] 0.006 | IRAK-1-4 Inhibitor I -0.021 | ibrutinib -0.087 | [9] -0.022 | ralimetinib 0.001 | [10] -0.042 | [11] -0.136 | [12] -0.051 | [13] 0.049 | [14] 0.022 | [15] -0.014 | [16] -0.009

APOA1 (UniProt P02647)
inactive: erlotinib -0.015 | [1] -0.095 | [2] -0.085 | [3] 0.045 | [4] 0.045 | [5] 0.269 | [6] -0.015 | [7] 0.072 | [8] -0.009 | IRAK-1-4 Inhibitor I -0.015 | ibrutinib 0.025 | [9] -0.039 | ralimetinib -0.114 | [10] 0.039 | [11] -0.023 | [12] 0.121 | [13] -0.014 | [14] 0.057 | [15] -0.009 | [16] -0.068

ARG2 (UniProt P78540)
inactive: erlotinib -0.006 | [1] -0.011 | [2] 0.034 | [3] 0.019 | [4] -0.011 | [5] 0.043 | [6] -0.038 | [7] -0.03 | [8] 0.023 | IRAK-1-4 Inhibitor I 0.007 | ibrutinib 0.03 | [9] 0.009 | ralimetinib -0.002 | [10] -0.072 | [11] -0.018 | [12] -0.003 | [13] -0.052 | [14] 0.053 | [15] 0.012 | [16] -0.017
